# According to US4416871A, “Inhibition by peptides of tolerance to and physical dependence on morphine” (The United States of America as represented by the …, priority 1982, dated 1983):
# Experiments:
# mice = test: One-trial passive avoidance task (memory retention); format: in vivo
# morphine-dependent mice = test: Body temperature, body weight and mortality during 3-day morphine pellet implantation with multiple peptide injections; format: in vivo
# Description: Male C57B1/6J, Swiss Webster, and ICR mice weighing 26±4 g (SD) were used in these studies.
# The mice were randomly divided into two groups. One received SC injections of water (vehicle) while the other received the peptide under investigation (50 μg/mouse on day one). Two hours later the mice were further subdivided and each subgroup was implanted with placebo or morphine pellets. The injections of vehicle and peptide were repeated 24 and 48 hours after the first injection in their respective groups. Morphine pellets containing 75 mg of morphine free base were implanted subcutaneously (SC) between 10-11 A.M. and were removed 3 days later at the same time. The control animals were implanted with placebo pellets. Body temperature and weight were measured daily at 11 A.M. Temperature was measured using a lubricated rectal probe inserted 2.5 cm into the rectum and measured with a telethermometer (Model 43TA Yellow Springs Instrument Co., Yellow Springs, Ohio).
# A similar relationship was found for the loss in body weight. Swiss Webster mice lost 16% and 14% in body weight when receiving Z-Pro-D-Leu or vehicle respectively. The C57B1/6J mice given Z-Pro-D-Leu/morphine lost 14%, while the vehicle/morphine group lost 11% in body weight during this period regardless of peptide or vehicle injections. There was one significant strain difference, i.e. a greater mortality during morphine treatment of C57B1/6J mice ([…], Binomial test).
substance,measurement,setting,value
Z-Pro-D-Leu,median step-through latency,"mice; C57B1/6J mice, 100 μg peptide SC, n=4",180 ± 0.0 s
same,median step-through latency,"mice; ICR mice, 100 μg peptide SC after training, tested 24 hours later, ±S.E., n=10",180 ± 32.4 s
same,effect on retention of memory,"mice; ICR, Swiss Webster and C57B1/6J mice",no effect in retention of memory
same,median step-through latency,"mice; Swiss Webster mice, 100 μg peptide SC, n=4",180 ± 51.9 s
same,loss in body weight,"morphine-dependent mice; C57B1/6J mice, peptide/morphine",14%
same,loss in body weight,"morphine-dependent mice; Swiss Webster mice, morphine pellets",16%
same,temperatures of placebo-implanted mice over duration of pellet implantation,morphine-dependent mice; placebo pellets,did not change
